Data published in PubChem BioAssay AID1487 (National Center for Advancing Translational Sciences (NCATS), 2009).
Values joined by “and” are separate entries in the source; they are usually repeats but may differ in a detail not shown here. Equal entries are not always repeated. Some of the results follow. These are further read-outs of the screen, such as a control signal, another cell line or another target. No call is given for them. Compounds called inactive in the main read-out are mostly missing here. Potencies come from curve fits of mixed quality, noted in brackets.

Test: qHTS Assay for Modulators of Lamin A Splicing
Settings: HeLa LMNA splicing GFP/RFP minigene ratio, 48 h
Outline: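 S3 HeLa cells stably expressing lamin A-EGFP splicing minigene plus DsRed2, 600 cells/well, 48 h compound exposure at 37C. Laser-scanning cytometry; analysed as GFP (500-530 nm)/RFP (575-640 nm) total intensity ratio; 0.5% DMSO vehicle.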

[1] = measured here: GFP splicing reporter channel
[2] = measured here: RFP viability control channel

Row | SMILES | AC50 [1] | AC50 [2]
1 | Cc1c(O)nc(SCC(=O)Nc2ccc3c4c(cccc24)CC3)n(-c2ccc(F)cc2)c1=O | 20 µM [rising, partial curve, poor fit] | 6.31 µM [rising, partial curve, poor fit]
2 | CSCc1cc(N(C)C)nc(SCc2ccc(Cl)cc2Cl)n1 | 35.5 µM [rising, single point] | 31.6 µM [rising, single point]
3 | CCOC(=O)C1=C(O)c2ccccc2C(=O)/C1=C\c1ccc(C)cc1 | 11.2 µM [rising, single point] | 12.6 µM [rising, partial curve]
4 | COc1cc(NC(=O)CN2c3cccc4cccc(c34)S2(=O)=O)cc(OC)c1OC | – | 12.6 µM [rising, partial curve]
5 | CC(=O)c1cccc(NC(=S)NC(=O)c2ccccc2Br)c1 | 7.08 µM [rising, partial curve, poor fit] | 0.0562 µM [rising, full curve, poor fit]
6 | CNCCCC12CCC(c3ccccc31)c1ccccc12 | 8.91 µM [falling, single point] and 14.1 nM [falling, full curve, poor fit] and 10 µM [falling, partial curve, poor fit] | 35.5 µM [rising, single point] and 11.2 µM [falling, single point] and 31.6 µM [rising, single point]
7 | O=C(COc1ccccc1Br)NC1CCCC1 | 14.1 µM [rising, partial curve, poor fit] | 12.6 µM [rising, partial curve]
8 | O=C1C(Cl)=C(N2CCCCC2)C(=O)N1Cc1ccccc1 | – | 31.6 µM [rising, single point]
9 | CCOc1cc(CNc2ccc(CNc3ncn[nH]3)cc2)ccc1OCc1ccccc1 | – | 35.5 µM [rising, single point]
10 | Cc1[nH]oc(=O)c1N=Nc1ccccc1 | 17.8 µM [rising, single point] | 14.1 µM [rising, single point]
11 | COCCCNC(=O)c1ccc2nc(Cc3ccc(OC)cc3)oc2c1 | 1 µM [rising, full curve] | 0.631 µM [rising, full curve, poor fit]
12 | Cc1c(/C=N/NC(N)=O)c2ccccn2c1C(=O)c1ccc(F)cc1 | – | 14.1 µM [rising, single point]
13 | Cc1cc(C)c2c(c1)-c1c(ssc1=S)C(C)(C)N2C(=O)CSc1nncn1C | 17.8 µM [rising, single point] | 35.5 µM [rising, single point]
14 | CCOc1ccc2c(c1)-c1c(ssc1=S)C(C)(C)N2C(=O)c1ccco1 | 35.5 µM [rising, single point] | 15.8 µM [rising, partial curve]
15 | CC(C)(C)OC(=O)N/N=C\c1ccc(OC(=O)c2ccco2)cc1 | 0.794 µM [rising, full curve, poor fit] | 0.0224 µM [rising, full curve, poor fit]
16 | Cc1ccccc1Cn1nc(C)c(NC(=O)c2noc3c2CC(C(C)(C)C)CC3)c1C (configuration not stated) | 35.5 µM [falling, single point] | 14.1 µM [falling, partial curve]
17 | O=C1Cc2c([nH]c3ccc(Br)cc23)-c2ccccc2N1 | 0.794 µM [falling, full curve] | 5.62 µM [falling, full curve, poor fit]
18 | Cc1ncoc1C(=O)N1CCCC(C(=O)c2ccc(-c3ccccc3)cc2)C1 (configuration not stated) | 15.8 µM [falling, partial curve, poor fit] | 11.2 µM [falling, partial curve, poor fit]
19 | COc1ccccc1-c1nnc2sc(C3CCCCC3)nn12 | – | 35.5 µM [rising, single point]
20 | O=C(Nc1ccc(CN2CCOCC2)cc1)c1cc2ccccn2n1 | – | 22.4 µM [rising, partial curve, poor fit]
21 | Cc1cc(C)cc(N=c2c([N+](=O)[O-])nn(-c3ccc4c(c3)OCCO4)n2O)c1 | 0.158 µM [rising, full curve, poor fit] | 5.62 µM [rising, partial curve, poor fit]
22 | Cc1ccc(OCC(=O)Nc2ccccc2C(=O)OCc2cc(=O)n3nc(C4CC4)sc3n2)cc1 | 2.51 µM [falling, partial curve] | –
23 | CCOc1ccc(-c2nc[nH]c2[N+](=O)[O-])cc1 | 1 µM [falling, partial curve, poor fit] | 0.112 µM [falling, full curve, poor fit]
24 | CCOc1ccc(NC(=O)CNC(=O)c2ccc(OC)c(OC)c2)cc1 | 31.6 µM [rising, single point] | –
25 | CCC(CC)NC(=O)c1oc2ccccc2c1COc1ccccc1 | – | 11.2 µM [rising, single point]
26 | COc1ccc(-n2cc(CNCCc3ncc(C)[nH]3)c(-c3ccccc3Cl)n2)cc1 | 35.5 µM [falling, single point] | –

A few values from the entries so far.
Entry of O=C(Nc1ccc(CN2CCOCC2)cc1)c1cc2ccccn2n1 under AC50 [2]: 22.4 µM [rising, partial curve, poor fit]
Entry of Cc1cc(C)c2c(c1)-c1c(ssc1=S)C(C)(C)N2C(=O)CSc1nncn1C under AC50 [2]: 35.5 µM [rising, single point]
Entry of CCOc1cc(CNc2ccc(CNc3ncn[nH]3)cc2)ccc1OCc1ccccc1 under AC50 [2]: 35.5 µM [rising, single point]

Additional records follow.

Row | SMILES | AC50 [1] | AC50 [2]
27 | O=C(CSc1cccc[n+]1[O-])c1cc(Cl)ccc1Cl | 7.94 µM [falling, partial curve] | 35.5 µM [falling, single point]
28 | CCOC(=O)c1cccc(NC(=O)C2(S(=O)(=O)c3ccc(Cl)cc3)CC2)c1 | – | 10 µM [rising, partial curve]
29 | O=C(Nc1ccccc1)C(c1ccccc1)C1CCCC1 (configuration not stated) | – | 28.2 µM [rising, single point]
30 | O=C(Nc1ccc(C(=O)OCc2cc(=O)n3c4c(sc3n2)CCCC4)cc1)c1ccccc1 | 0.282 µM [rising, full curve] | –
31 | CN(Cc1cccc(-n2cccn2)c1)C(=O)CCc1nnc(C2CCCCC2)o1 | – | 0.562 µM [falling, full curve, poor fit]
32 | C=CCNc1nc(-c2ccc([N+](=O)[O-])cc2)cs1 | 11.2 µM [rising, single point] | 17.8 µM [rising, partial curve]
33 | O=S(=O)(/C=C/c1ccccc1)Nc1cccc(S(=O)(=O)NC2=NCCC2)c1 | 3.16 µM [falling, full curve] | –
34 | O=C(Cn1cnc2c(oc3ccccc32)c1=O)Nc1ccccc1C(F)(F)F | – | 35.5 µM [rising, single point]
35 | Cc1ccnc(NS(=O)(=O)c2ccc(C(C)(C)C)cc2)c1 | 0.112 µM [rising, single point] | 0.1 µM [rising, single point]
36 | O=C1c2cccc(OCC(=O)N3CCCc4ccccc43)c2CCN1Cc1ccc(F)cc1 | – | 22.4 µM [rising, partial curve, poor fit]
37 | COC(=O)c1cc(CSc2nc3ccccc3[nH]2)oc1C | – | 28.2 µM [rising, single point]
38 | O=C(NCc1cccc(Cl)c1)c1cc2ccc3cccnc3c2[nH]1 | – | 39.8 µM [falling, partial curve, poor fit]
39 | N#Cc1cc(C(=O)c2cc(Br)ccc2O)cn(C2CC2)c1=O | 15.8 µM [rising, single point] | 14.1 µM [rising, single point]
40 | Cn1c(CNC(=O)OC(C)(C)C)n[nH]c1=S | – | 0.00562 µM [falling, full curve, poor fit]
41 | COc1cccc(NC(=O)Nc2ccc(C(C)(C)C)cc2)c1 | – | 35.5 µM [rising, single point]
42 | COc1ccc2[nH]cc(CCNc3ccnc(-c4ccc(C(=O)N(C)C)cc4)n3)c2c1 | 12.6 µM [falling, partial curve] | 12.6 µM [falling, partial curve]
43 | COc1ccc(-c2n[nH]c(=S)n2C2CCCCC2)cc1 | 25.1 µM [rising, single point] | 35.5 µM [rising, single point]
44 | CC(=O)c1c(C)[nH]c(C(=O)OCC(=O)Nc2cc(S(=O)(=O)N3CCCC3)ccc2Cl)c1C | 35.5 µM [rising, single point] | 15.8 µM [rising, partial curve]
45 | CCn1nc([N+](=O)[O-])c(C(C#N)c2nc3cc(C(F)(F)F)ccc3s2)c(Cl)c1=O (configuration not stated) | 14.1 µM [falling, partial curve] | 35.5 µM [rising, single point]
46 | Cc1c(C(=O)c2no[n+]([O-])c2C(=O)c2cnn(C)c2C)cnn1C | – | 15.8 µM [falling, single point]
47 | O=C1C=CC(=O)N1CCCCCCN1C(=O)C=CC1=O | 10 µM [falling, partial curve] | 8.91 µM [rising, partial curve]
48 | CCOCCCn1c(SCC(=O)Nc2ccc(C(C)C)cc2)nc2c(sc3ccccc32)c1=O | 2 µM [falling, full curve] | 5.62 µM [falling, partial curve, poor fit]
49 | C[C@]12C=CC(=O)C=C1CC[C@H]1[C@@H]3C[C@@H](O)[C@](O)(C(=O)CO)[C@@]3(C)C[C@H](O)[C@@]12F | – | 0.0224 µM [falling, full curve, poor fit]
50 | COc1ccc(S(=O)(=O)N2CCCCCC2)cc1C(=O)OCC(=O)NC(C)(C)C | 35.5 µM [rising, single point] | –
51 | O=C(NCc1ccc(Cl)cc1Cl)c1ccc2nc[nH]c2c1 | – | 10 µM [rising, partial curve, poor fit]

2 entries from above in a different format:
COc1ccc(S(=O)(=O)N2CCCCCC2)cc1C(=O)OCC(=O)NC(C)(C)C
  AC50 [1]: 35.5 µM [rising, single point]
O=C(NCc1ccc(Cl)cc1Cl)c1ccc2nc[nH]c2c1
  AC50 [2]: 10 µM [rising, partial curve, poor fit]
